Measurements as given in patent US20090162363A1 (published 2009).
Results are given in words; binding and its absence hold for the method and conditions named. Binding can be weak; no strength is given.

Columns and labels:
[1] = molecular target: T1, recombinant human PEDF protein (pigment epithelium derived factor) (human) (UniProt P36955); experiment: His-tag pull-down, solid-phase binding, ultrafiltration and SPR
T1 sequence (looked up): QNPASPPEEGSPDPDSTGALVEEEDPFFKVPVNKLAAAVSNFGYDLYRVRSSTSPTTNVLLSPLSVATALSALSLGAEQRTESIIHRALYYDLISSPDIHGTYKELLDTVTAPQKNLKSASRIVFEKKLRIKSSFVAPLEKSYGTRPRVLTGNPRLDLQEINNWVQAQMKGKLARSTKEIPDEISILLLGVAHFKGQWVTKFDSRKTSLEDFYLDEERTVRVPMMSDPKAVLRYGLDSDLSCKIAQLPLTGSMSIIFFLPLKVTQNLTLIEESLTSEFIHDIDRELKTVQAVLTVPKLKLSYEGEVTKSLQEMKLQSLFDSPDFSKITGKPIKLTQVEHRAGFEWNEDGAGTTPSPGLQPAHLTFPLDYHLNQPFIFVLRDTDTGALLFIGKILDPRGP

[2] = molecular target: T1, recombinant human PEDF protein (pigment epithelium derived factor) (human); experiment: purified His-tagged p12 with purified PEDF (assay not given)

binding [1]: binds | binding [2]: binds
Substance: p12N (PEDF-binding fragment p12 of human R1 with N-terminal 6xHis tag, from pEXP-12N) (receptor)
